The supplement of paper PMC10849652
This is one part of the list.

Sequences of proteins named here, by UniProt entry; tags and fusion partners are left off. A change or cut given only in a name is not applied to a line headed by its entry.
UniProt Q92766: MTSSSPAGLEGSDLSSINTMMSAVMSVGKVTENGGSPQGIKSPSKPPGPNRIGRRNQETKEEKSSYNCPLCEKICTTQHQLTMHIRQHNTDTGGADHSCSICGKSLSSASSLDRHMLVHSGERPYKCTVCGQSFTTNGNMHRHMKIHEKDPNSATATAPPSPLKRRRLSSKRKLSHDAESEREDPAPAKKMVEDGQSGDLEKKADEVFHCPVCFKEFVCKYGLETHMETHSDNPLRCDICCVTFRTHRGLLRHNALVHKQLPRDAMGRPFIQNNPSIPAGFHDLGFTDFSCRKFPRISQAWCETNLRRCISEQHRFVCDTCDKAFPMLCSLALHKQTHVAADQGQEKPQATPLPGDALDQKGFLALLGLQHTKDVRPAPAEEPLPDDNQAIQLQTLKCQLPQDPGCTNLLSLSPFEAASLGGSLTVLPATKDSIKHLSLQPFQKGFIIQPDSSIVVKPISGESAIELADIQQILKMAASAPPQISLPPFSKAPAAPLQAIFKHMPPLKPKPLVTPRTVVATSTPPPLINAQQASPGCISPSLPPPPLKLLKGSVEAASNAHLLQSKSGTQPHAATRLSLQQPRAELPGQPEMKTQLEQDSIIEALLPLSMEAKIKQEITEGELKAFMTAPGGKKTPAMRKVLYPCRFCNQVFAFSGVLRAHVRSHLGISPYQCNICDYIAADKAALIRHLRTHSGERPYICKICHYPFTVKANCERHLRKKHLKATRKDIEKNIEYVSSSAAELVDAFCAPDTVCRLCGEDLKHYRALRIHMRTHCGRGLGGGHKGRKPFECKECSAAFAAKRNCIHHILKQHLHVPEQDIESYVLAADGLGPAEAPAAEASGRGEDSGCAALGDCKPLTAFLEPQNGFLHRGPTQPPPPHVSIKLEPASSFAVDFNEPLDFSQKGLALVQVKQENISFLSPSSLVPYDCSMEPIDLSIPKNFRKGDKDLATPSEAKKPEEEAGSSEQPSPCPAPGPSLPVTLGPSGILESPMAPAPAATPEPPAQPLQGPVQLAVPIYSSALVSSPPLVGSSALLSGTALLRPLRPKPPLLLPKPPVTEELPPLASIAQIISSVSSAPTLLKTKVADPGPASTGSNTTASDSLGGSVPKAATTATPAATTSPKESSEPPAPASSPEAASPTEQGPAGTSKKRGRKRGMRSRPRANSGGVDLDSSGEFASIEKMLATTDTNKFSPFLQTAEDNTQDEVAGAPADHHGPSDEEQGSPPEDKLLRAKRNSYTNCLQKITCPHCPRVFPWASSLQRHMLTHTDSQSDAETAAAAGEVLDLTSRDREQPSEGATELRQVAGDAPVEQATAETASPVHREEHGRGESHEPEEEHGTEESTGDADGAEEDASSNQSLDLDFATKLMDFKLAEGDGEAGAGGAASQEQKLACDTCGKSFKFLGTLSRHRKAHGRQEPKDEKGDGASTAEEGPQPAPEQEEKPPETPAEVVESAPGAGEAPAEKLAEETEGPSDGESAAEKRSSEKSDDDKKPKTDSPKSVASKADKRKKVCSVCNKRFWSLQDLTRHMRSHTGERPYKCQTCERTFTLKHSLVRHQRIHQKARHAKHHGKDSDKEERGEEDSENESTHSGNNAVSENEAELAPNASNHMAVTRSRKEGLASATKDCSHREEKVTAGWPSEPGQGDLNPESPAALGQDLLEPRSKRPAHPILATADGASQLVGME
UniProt P49247: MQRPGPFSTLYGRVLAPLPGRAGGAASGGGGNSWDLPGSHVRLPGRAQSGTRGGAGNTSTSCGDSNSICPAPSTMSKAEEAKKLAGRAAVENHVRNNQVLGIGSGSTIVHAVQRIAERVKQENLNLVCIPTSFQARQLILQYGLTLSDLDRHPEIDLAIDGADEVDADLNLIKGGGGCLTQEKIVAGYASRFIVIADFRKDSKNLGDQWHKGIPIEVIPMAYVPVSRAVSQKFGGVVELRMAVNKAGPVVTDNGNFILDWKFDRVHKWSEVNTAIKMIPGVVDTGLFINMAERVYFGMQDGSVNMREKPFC
UniProt O75818: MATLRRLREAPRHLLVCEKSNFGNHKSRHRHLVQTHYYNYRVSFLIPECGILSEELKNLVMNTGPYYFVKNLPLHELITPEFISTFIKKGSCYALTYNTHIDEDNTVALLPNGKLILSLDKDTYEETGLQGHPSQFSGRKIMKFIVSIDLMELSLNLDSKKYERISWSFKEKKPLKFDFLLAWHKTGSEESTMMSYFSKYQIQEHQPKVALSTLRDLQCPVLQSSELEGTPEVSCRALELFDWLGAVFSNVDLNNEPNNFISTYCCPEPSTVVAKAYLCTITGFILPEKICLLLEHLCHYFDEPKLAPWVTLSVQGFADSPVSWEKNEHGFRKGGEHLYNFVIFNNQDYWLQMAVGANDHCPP
UniProt Q15349, whole entry, looked up: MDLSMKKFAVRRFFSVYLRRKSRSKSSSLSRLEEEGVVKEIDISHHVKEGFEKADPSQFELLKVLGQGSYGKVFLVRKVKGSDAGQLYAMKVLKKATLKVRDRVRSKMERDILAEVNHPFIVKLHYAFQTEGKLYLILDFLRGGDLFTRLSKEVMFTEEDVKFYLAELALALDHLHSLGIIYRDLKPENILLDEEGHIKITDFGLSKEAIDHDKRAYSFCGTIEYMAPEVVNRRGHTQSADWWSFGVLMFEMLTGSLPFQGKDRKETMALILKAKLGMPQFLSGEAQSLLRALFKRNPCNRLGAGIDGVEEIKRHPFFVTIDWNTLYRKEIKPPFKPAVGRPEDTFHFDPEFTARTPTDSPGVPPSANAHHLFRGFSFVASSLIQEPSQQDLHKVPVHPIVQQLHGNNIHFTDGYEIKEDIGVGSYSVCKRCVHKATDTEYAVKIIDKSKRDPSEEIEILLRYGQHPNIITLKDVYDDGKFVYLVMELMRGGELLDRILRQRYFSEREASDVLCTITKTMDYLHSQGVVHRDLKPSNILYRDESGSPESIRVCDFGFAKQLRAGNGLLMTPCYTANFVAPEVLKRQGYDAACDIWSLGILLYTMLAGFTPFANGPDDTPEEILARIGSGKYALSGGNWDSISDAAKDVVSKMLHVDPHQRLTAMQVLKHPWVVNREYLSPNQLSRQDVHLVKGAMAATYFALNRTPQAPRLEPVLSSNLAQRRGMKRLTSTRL
UniProt Q9H633: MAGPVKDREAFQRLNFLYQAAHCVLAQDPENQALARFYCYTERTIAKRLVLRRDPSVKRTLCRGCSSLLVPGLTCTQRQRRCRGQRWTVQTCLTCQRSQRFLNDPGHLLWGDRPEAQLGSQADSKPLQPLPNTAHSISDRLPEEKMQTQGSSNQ
UniProt Q99942: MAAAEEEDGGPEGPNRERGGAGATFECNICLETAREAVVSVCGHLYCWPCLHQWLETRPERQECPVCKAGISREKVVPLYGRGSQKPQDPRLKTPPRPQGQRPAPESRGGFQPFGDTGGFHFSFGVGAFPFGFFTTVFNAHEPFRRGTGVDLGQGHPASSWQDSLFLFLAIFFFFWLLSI
UniProt P15927: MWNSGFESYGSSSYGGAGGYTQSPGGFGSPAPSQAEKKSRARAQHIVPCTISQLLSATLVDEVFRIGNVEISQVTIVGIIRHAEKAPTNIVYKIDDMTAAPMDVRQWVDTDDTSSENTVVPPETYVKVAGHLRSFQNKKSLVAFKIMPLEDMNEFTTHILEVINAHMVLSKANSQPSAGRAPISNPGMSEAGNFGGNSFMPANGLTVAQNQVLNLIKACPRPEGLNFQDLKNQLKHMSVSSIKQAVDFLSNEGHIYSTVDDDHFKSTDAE
UniProt O75116: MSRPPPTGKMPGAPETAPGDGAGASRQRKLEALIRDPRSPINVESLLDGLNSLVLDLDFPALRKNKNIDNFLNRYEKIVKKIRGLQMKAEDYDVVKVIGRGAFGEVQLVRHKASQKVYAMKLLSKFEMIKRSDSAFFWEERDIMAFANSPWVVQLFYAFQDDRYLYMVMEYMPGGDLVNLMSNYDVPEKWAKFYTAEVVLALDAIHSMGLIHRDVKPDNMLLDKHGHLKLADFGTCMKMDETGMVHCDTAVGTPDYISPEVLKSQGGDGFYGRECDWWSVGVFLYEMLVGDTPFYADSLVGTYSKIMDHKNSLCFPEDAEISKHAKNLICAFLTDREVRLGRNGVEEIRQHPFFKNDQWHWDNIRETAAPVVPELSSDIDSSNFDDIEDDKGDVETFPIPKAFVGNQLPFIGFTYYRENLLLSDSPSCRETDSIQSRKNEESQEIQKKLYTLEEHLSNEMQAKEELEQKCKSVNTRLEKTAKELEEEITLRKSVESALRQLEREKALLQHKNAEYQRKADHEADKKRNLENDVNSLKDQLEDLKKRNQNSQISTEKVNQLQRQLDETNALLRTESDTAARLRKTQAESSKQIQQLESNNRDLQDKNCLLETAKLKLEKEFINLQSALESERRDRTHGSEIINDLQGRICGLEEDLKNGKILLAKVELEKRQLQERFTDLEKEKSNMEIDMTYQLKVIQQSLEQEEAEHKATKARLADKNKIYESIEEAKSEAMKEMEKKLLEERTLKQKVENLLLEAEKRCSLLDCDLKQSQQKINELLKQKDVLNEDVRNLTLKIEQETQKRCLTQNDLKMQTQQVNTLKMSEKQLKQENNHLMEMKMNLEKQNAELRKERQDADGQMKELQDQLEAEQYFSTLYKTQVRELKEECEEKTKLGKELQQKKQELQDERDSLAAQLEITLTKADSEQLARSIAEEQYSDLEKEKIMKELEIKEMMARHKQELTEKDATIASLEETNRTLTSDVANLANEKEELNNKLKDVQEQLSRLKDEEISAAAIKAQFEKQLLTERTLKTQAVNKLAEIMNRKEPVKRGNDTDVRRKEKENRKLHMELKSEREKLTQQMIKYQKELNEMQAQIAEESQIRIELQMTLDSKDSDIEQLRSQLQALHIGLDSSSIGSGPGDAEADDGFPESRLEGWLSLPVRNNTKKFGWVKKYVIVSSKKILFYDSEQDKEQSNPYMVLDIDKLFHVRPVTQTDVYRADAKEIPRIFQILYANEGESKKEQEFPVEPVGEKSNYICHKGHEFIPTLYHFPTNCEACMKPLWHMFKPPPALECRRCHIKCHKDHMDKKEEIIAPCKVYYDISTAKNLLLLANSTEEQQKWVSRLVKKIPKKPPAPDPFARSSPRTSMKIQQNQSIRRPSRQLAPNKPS
UniProt Q9P2E9: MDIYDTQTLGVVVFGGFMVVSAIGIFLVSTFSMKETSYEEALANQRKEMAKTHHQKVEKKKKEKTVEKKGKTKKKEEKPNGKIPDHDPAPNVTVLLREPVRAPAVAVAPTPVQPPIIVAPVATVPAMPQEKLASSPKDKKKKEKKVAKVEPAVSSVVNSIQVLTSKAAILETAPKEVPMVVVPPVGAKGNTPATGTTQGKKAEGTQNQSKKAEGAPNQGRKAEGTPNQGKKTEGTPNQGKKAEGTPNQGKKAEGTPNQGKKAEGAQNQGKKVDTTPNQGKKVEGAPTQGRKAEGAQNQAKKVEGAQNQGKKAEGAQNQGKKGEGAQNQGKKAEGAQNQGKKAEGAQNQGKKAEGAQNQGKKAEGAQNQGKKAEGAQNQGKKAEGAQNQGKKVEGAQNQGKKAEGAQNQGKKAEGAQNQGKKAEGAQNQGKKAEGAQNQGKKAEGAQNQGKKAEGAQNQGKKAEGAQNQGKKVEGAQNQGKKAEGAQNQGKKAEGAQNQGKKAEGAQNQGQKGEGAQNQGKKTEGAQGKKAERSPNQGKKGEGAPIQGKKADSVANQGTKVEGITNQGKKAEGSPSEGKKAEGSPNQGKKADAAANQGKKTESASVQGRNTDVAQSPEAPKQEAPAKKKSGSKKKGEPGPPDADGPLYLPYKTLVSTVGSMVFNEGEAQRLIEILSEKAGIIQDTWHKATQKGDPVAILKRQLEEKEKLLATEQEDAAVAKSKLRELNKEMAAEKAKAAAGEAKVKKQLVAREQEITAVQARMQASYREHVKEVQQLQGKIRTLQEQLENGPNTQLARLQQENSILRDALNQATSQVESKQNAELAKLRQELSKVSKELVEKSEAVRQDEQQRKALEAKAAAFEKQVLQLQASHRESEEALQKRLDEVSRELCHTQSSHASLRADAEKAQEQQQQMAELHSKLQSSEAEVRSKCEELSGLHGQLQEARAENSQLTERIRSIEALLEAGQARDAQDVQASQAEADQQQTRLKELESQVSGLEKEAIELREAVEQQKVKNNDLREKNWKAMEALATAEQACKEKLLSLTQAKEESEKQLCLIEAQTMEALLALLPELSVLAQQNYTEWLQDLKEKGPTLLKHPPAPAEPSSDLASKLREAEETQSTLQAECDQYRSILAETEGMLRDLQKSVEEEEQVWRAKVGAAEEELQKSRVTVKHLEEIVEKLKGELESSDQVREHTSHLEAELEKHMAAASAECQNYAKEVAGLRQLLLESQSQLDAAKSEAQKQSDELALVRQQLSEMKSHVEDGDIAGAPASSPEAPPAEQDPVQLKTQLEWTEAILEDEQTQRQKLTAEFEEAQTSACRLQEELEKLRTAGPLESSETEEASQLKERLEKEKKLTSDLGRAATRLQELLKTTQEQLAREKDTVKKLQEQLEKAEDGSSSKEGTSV

What was measured:
Assay in all cases: log2 fold change, soluble protein after heating vs DMSO (PISA); higher = thermal stabilisation; K562 cells, 10 uM, 30 min; active = over 0.2 and 3.5 SD of the protein, either way, in both replicates (recomputed)
[1] = compound: CC1=C(C=C(C=C1)NC(=O)C2=CC(=CC=C2)C(C)(C)C#N)NC3=CC4=C(C=C3)N=CN(C4=O)C
Method in brief: (§1)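 Values are thermal stability changes relative to control samples and are taken from duplicates. They are stated as log2 fold changes. Before quantification by TMTpro 16plex LC-MS/MS with equalised channel sums, K562 cells at 2×10^6 cells/mL were treated with 10 μM compound for 30 min, heated in aliquots for 3 min across 48°C-58°C, pooled, extracted in PBS with 0.5% NP-40 at 4°C, and centrifuged at 21,000xg for 90 min to give the soluble supernatant.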

[2] = compound: CC1=C(C=C(C=C1)NC(=O)C2=CC(=CC=C2)N(C)C)NC(=O)C3=CC=C(C=C3)O
Method in brief: as §1

[3] = compound: CC1=CC=C(C=C1)SC2=C3C=C(SC3=CN=C2)C(=O)N
Method in brief: as §1

[4] = compound: CC1=NC(=CC=C1)C2=C(N=C(N2)C(C)(C)C)C3=CC4=NC=CN=C4C=C3
Method in brief: as §1

Nexturastat A = compound: CCCCN(Cc1ccc(C(=O)NO)cc1)C(=O)Nc1ccccc1 [Nexturastat A]
Method in brief: as §1

vemurafenib = compound: CCCS(=O)(=O)Nc1ccc(F)c(C(=O)c2c[nH]c3ncc(-c4ccc(Cl)cc4)cc23)c1F [vemurafenib]
Method in brief: as §1

[5] = compound: CCCS(=O)(=O)Nc1ccc(F)c(C(=O)c2c[nH]c3ncc(Cl)cc23)c1F
Method in brief: as §1

[6] = compound: CCCc1cc(C)[nH]c(=O)c1CNC(=O)c1cc(-c2ccnc(N3CCN(C)CC3)c2)cc2c1cnn2C(C)C
Method in brief: as §1

givinostat = compound: CCN(CC)Cc1ccc2cc(COC(=O)Nc3ccc(C(=O)NO)cc3)ccc2c1 [givinostat]
Method in brief: as §1

barasertib = compound: CCN(CCCOc1ccc2c(Nc3cc(CC(=O)Nc4cccc(F)c4)[nH]n3)ncnc2c1)CCOP(=O)(O)O [barasertib]
Method in brief: as §1

Measured: log2 fold change

RREB1 isoform 2 (UniProt Q92766)
inactive: [1] 0.047 | [2] -0.017 | [3] -0.132 | [4] 0.018 | Nexturastat A -0.098 | vemurafenib -0.011 | [5] -0.002 | [6] -0.12 | givinostat -0.06 | barasertib 0.105

ROCK1 (UniProt Q13464)
inactive: [1] 0.003 | [2] -0.073 | [3] -0.016 | [4] -0.037 | Nexturastat A 0.093 | vemurafenib 0.052 | [5] 0.036 | [6] -0.019 | givinostat 0.031 | barasertib 0.021

RPL18A (UniProt Q02543)
inactive: [1] 0.02 | [2] 0.002 | [3] -0.081 | [4] -0.263 | Nexturastat A 0.384 | vemurafenib -0.3 | [5] -0.099 | [6] 0.241 | givinostat 0.08 | barasertib -0.189

RPL13A (UniProt P40429)
inactive: [1] 0.021 | [2] -0.022 | [3] -0.055 | [4] -0.19 | Nexturastat A 0.305 | vemurafenib -0.297 | [5] -0.17 | [6] 0.257 | givinostat 0.15 | barasertib -0.203

RPIA (UniProt P49247)
inactive: [1] -0.015 | [2] 0.01 | [3] 0.007 | [4] 0.007 | Nexturastat A -0.034 | vemurafenib -0.013 | [5] -0.001 | [6] -0.089 | givinostat -0.016 | barasertib 0.001

RPL23A (UniProt P62750)
inactive: [1] 0.021 | [2] 0 | [3] -0.09 | [4] -0.125 | Nexturastat A 0.243 | vemurafenib -0.105 | [5] -0.101 | [6] 0.193 | givinostat 0.024 | barasertib -0.149

RPL36A (UniProt P83881)
inactive: [1] -0.079 | [2] -0.017 | [3] -0.102 | [4] -0.213 | Nexturastat A 0.342 | vemurafenib -0.141 | [5] -0.119 | [6] 0.12 | givinostat 0.051 | barasertib -0.139

RPS10 (UniProt P46783)
inactive: [1] 0.009 | [2] 0.012 | [3] -0.073 | [4] -0.031 | Nexturastat A 0.128 | vemurafenib -0.091 | [5] -0.082 | [6] 0.086 | givinostat -0.007 | barasertib -0.067

RPS15A (UniProt P62244)
inactive: [1] -0.019 | [2] 0.029 | [3] -0.052 | [4] -0.095 | Nexturastat A 0.211 | vemurafenib -0.104 | [5] -0.03 | [6] 0.117 | givinostat 0.016 | barasertib -0.118

RPL7A (UniProt P62424)
inactive: [1] -0.009 | [2] 0 | [3] -0.116 | [4] -0.283 | Nexturastat A 0.348 | vemurafenib -0.253 | [5] -0.156 | [6] 0.278 | givinostat 0.165 | barasertib -0.205

RPP40 (UniProt O75818)
inactive: [1] -0.029 | [2] -0.007 | [3] -0.013 | [4] 0.01 | Nexturastat A 0.013 | vemurafenib -0.046 | [5] -0.031 | [6] 0.009 | givinostat 0.003 | barasertib -0.031

RPSA (UniProt P08865)
inactive: [1] 0.001 | [2] 0.021 | [3] -0.014 | [4] -0.028 | Nexturastat A 0.044 | vemurafenib -0.018 | [5] -0.019 | [6] 0.036 | givinostat -0.028 | barasertib -0.013

RPL18 (UniProt Q07020)
inactive: [1] -0.002 | [2] 0 | [3] -0.099 | [4] -0.2 | Nexturastat A 0.381 | vemurafenib -0.29 | [5] -0.132 | [6] 0.195 | givinostat 0.177 | barasertib -0.228

RPS20 isoform 2 (UniProt P60866)
inactive: [1] 0.056 | [2] 0.021 | [3] -0.049 | [4] -0.077 | Nexturastat A 0.112 | vemurafenib -0.117 | [5] -0.068 | [6] 0.008 | givinostat -0.032 | barasertib -0.063

RPS3A (UniProt P61247)
inactive: [1] 0.011 | [2] 0.009 | [3] -0.081 | [4] -0.036 | Nexturastat A 0.069 | vemurafenib -0.104 | [5] -0.095 | [6] 0.071 | givinostat -0.033 | barasertib -0.109

RPS6KA2 isoform 2 (UniProt Q15349)
inactive: [1] -0.087 | [2] -0.229 | [3] 0.159 | [4] 0.011 | Nexturastat A 0.009 | vemurafenib 0.037 | [5] 0.026 | [6] 0.023 | givinostat -0.148 | barasertib 0.064

RPL31 (UniProt P62899)
inactive: [1] -0.005 | [2] 0.01 | [3] -0.086 | [4] -0.075 | Nexturastat A 0.168 | vemurafenib -0.145 | [5] -0.15 | [6] 0.092 | givinostat 0.031 | barasertib -0.149

RPL23 (UniProt P62829)
inactive: [1] 0.014 | [2] 0.026 | [3] -0.032 | [4] -0.051 | Nexturastat A 0.199 | vemurafenib -0.074 | [5] -0.087 | [6] 0.111 | givinostat 0.029 | barasertib -0.063

RPP21 isoform 4 (UniProt Q9H633)
inactive: [1] -0.001 | [2] -0.008 | [3] -0.012 | [4] -0.089 | Nexturastat A -0.006 | vemurafenib -0.067 | [5] 0.129 | [6] -0.093 | givinostat 0.117 | barasertib -0.025

RPL6 (UniProt Q02878)
inactive: [1] 0.033 | [2] -0.001 | [3] -0.073 | [4] -0.171 | Nexturastat A 0.545 | vemurafenib -0.295 | [5] -0.107 | [6] 0.255 | givinostat 0.18 | barasertib -0.211

RPL38 (UniProt P63173)
inactive: [1] 0.032 | [2] 0.017 | [3] -0.038 | [4] -0.045 | Nexturastat A 0.075 | vemurafenib -0.003 | [5] 0.006 | [6] 0.069 | givinostat -0.054 | barasertib -0.025

7 neighbouring entries already listed, for reference:
RPS10 (UniProt P46783)
inactive: [1] 0.009 | [2] 0.012 | [3] -0.073 | [4] -0.031 | Nexturastat A 0.128 | vemurafenib -0.091 | [5] -0.082 | [6] 0.086 | givinostat -0.007 | barasertib -0.067

RPS15A (UniProt P62244)
inactive: [1] -0.019 | [2] 0.029 | [3] -0.052 | [4] -0.095 | Nexturastat A 0.211 | vemurafenib -0.104 | [5] -0.03 | [6] 0.117 | givinostat 0.016 | barasertib -0.118

RPL7A (UniProt P62424)
inactive: [1] -0.009 | [2] 0 | [3] -0.116 | [4] -0.283 | Nexturastat A 0.348 | vemurafenib -0.253 | [5] -0.156 | [6] 0.278 | givinostat 0.165 | barasertib -0.205

RPP40 (UniProt O75818)
inactive: [1] -0.029 | [2] -0.007 | [3] -0.013 | [4] 0.01 | Nexturastat A 0.013 | vemurafenib -0.046 | [5] -0.031 | [6] 0.009 | givinostat 0.003 | barasertib -0.031

RPSA (UniProt P08865)
inactive: [1] 0.001 | [2] 0.021 | [3] -0.014 | [4] -0.028 | Nexturastat A 0.044 | vemurafenib -0.018 | [5] -0.019 | [6] 0.036 | givinostat -0.028 | barasertib -0.013

RPL18 (UniProt Q07020)
inactive: [1] -0.002 | [2] 0 | [3] -0.099 | [4] -0.2 | Nexturastat A 0.381 | vemurafenib -0.29 | [5] -0.132 | [6] 0.195 | givinostat 0.177 | barasertib -0.228

RPS20 isoform 2 (UniProt P60866)
inactive: [1] 0.056 | [2] 0.021 | [3] -0.049 | [4] -0.077 | Nexturastat A 0.112 | vemurafenib -0.117 | [5] -0.068 | [6] 0.008 | givinostat -0.032 | barasertib -0.063

(cont.)

RPS11 (UniProt P62280)
inactive: [1] 0.011 | [2] 0 | [3] -0.119 | [4] -0.046 | Nexturastat A 0.227 | vemurafenib -0.172 | [5] -0.127 | [6] 0.156 | givinostat 0.015 | barasertib -0.113

RNF5 (UniProt Q99942)
inactive: [1] -0.02 | [2] 0.087 | [3] 0.03 | [4] 0.039 | Nexturastat A -0.052 | vemurafenib -0.024 | [5] 0.005 | [6] 0.023 | givinostat 0.129 | barasertib 0.037

RPA2 isoform 3 (UniProt P15927)
inactive: [1] 0.018 | [2] 0.006 | [3] 0.016 | [4] 0.004 | Nexturastat A 0.033 | vemurafenib -0.011 | [5] -0.064 | [6] -0.015 | givinostat 0.028 | barasertib -0.009

RPL17 isoform 3 (UniProt P18621)
inactive: [1] 0.038 | [2] -0.006 | [3] -0.066 | [4] -0.084 | Nexturastat A 0.278 | vemurafenib -0.128 | [5] -0.065 | [6] 0.117 | givinostat -0.038 | barasertib -0.085

ROCK2 (UniProt O75116)
inactive: [1] 0.009 | [2] -0.044 | [3] -0.037 | [4] 0.02 | Nexturastat A -0.004 | vemurafenib 0.034 | [5] -0.005 | [6] -0.06 | givinostat 0.055 | barasertib 0.027

RPS14 (UniProt P62263)
inactive: [1] 0.03 | [2] 0 | [3] -0.041 | [4] -0.004 | Nexturastat A 0.102 | vemurafenib -0.066 | [5] -0.038 | [6] 0.046 | givinostat 0.023 | barasertib -0.04

RPL22 (UniProt P35268)
inactive: [1] -0.023 | [2] 0.04 | [3] -0.083 | [4] -0.072 | Nexturastat A 0.247 | vemurafenib -0.063 | [5] -0.015 | [6] 0.109 | givinostat 0.029 | barasertib -0.058

RPL8 (UniProt P62917)
inactive: [1] -0.05 | [2] 0.002 | [3] -0.091 | [4] -0.164 | Nexturastat A 0.391 | vemurafenib -0.316 | [5] -0.087 | [6] 0.201 | givinostat 0.047 | barasertib -0.267

RRBP1 (UniProt Q9P2E9)
inactive: [1] -0.066 | [2] 0.032 | [3] -0.049 | [4] -0.159 | Nexturastat A 0.426 | vemurafenib -0.138 | [5] -0.012 | [6] 0.203 | givinostat 0.081 | barasertib -0.1
